Laboratory results: patent US20250177473A1, “PEPTIDE REGULATORS OF METABOLISM” (Metabico, Inc., priority 2022, published 2025)
For some of these results: Not every detail of the peptide structures is certain; ends, links or a residue may be inferred. For some of these results: At least one structure is not confirmed: it was looked up by name or label, or the drawing left a doubt. No end group written: not given here.

What was measured:
[1] = tested on: M67 (Stat1/Stat3) luciferase reporter; assay: M67 (Stat1/Stat3) luciferase reporter in HepG2 cells; assay type: cell-based, human; details: EPSI 0.05 mg/mL + inhibitor (pravastatin 10 μM; SC144; NF 449), 16 hours
[2] = tested on: IRS2 gene expression; assay: IRS2 and metabolic gene mRNA expression (real-time PCR) in primary mouse fibroblasts; assay type: cell-based
Protocol: The study was carried out in primary mouse fibroblasts. Fibroblasts were isolated from skin tissues of twenty C57BL/6 mice in accordance with the standard protocol (Seluanov (2010). Establishing primary adult fibroblast cultures from rodents. JoVE. 44). Fibroblasts were cultured in a complete DMEM/F12 medium containing 15% FBS for two days, after which they were incubated with individual peptides for 24 hours. The dose of each peptide was 0.5 mg/ml. The experiment was carried out in 2 biological replicates.
The isolation of total RNA from cells was performed using the “ExtractRNA” reagent (Evrogen, Russia) analog of Trizol, according to the manufacturer's protocol. The quality of the isolated total RNA was assessed by measuring the concentration of RNA and the ratio of optical absorption at wavelengths of 260 nm and 280 nm.
The synthesis of the first strand of cDNA was performed using a commercially available MMLVRT Kit (Evrogen, Russia) according to the manufacturer's protocol.
For the screening, we have chosen genes playing the key role in the regulation of metabolically related intracellular processes: • 1) Genes of mTOR signaling pathways: TSC1, TSC2, pS6K1; • 2) Genes of insulin receptor signaling pathways: pAKT, IRS2; and • 3) Genes for common transcriptional regulators of carbohydrate and lipid metabolism: Stat-3—a general regulator of metabolically-relevant intracellular processes; SREBP-1—a transcriptional regulator of genes responsible for lipid metabolism.
Design of the primers for the analysis of expression levels of studied genes was performed using Primer-BLAST primer designing tool (NCBI-NIH). The sequences of the primers used: […]
Real-time PCR was performed using commercially available kit qPCR mix-HS-SYBR+Low Rox (Evrogen, Russia) and 7500 real-time PCR System (Applied Biosystems). The results were normalized using primers for the housekeeping gene RPL27. We analyzed expression levels of TSC1, TSC2, pS6K1, pAKT, IRS2, SREBP-1, Stat3 genes. The amplification quality control was performed by recording the melting curves of the amplification products.
The study was carried out in primary mouse fibroblasts. Isolation of fibroblasts was carried out with techniques described earlier (See Example 1). Fibroblasts were incubated with […] (SEQ ID NO: 1) peptide at different concentrations (0.005 mg/ml; 0.05 mg/ml; 0.5 mg/ml; 2.5 mg/ml) for 24 hours. Each treatment group was represented in two biological replicates.
Isolation of mRNA, synthesis of the first strand of cDNA, and analysis of expression levels of RPL27 and IRS2 genes by real-time PCR were performed with techniques described earlier (See Example 1).
(§1) The study was carried out in primary mouse fibroblasts. Isolation of fibroblasts was carried out with techniques described earlier (See Example 1). Fibroblasts were cultured for 3 days. The following stressors were applied separately: bacterial lipopolysaccharides (LPS), high glucose in the incubation medium, and serum-free incubation medium.
(§2) LPS is a major outer surface membrane component that induces an inflammatory response in cells.
High glucose levels imitate conditions in diabetes.
(§3) Isolation of mRNA, synthesis of the first strand of cDNA, and RT-PCR were performed with techniques described earlier (See Example 1). Expression levels of IRS2, TNF-α, IL-6, and GSK3p (WNT-pathway) were analyzed.
The study was carried out in primary mouse fibroblasts. Isolation of fibroblasts was carried out with techniques described earlier (See Example 1). Incubation of fibroblasts with individual peptides was carried out for 24 hours. All peptides were applied in concentration 100 μM which corresponds to […] (SEQ ID NO: 1) efficient dose of 0.05 mg/mL. Each treatment group was represented in two biological replicates.
Isolation of mRNA, synthesis of the first strand of cDNA, and RT-PCR were performed with techniques described earlier (See Example 1). Expression levels of IRS2 and RPL27 genes were analyzed. […]

[3] = tested on: GSK3p; assay: GSK3p mRNA expression in primary mouse fibroblasts under normal and stress conditions; assay type: cell-based; details: normal conditions, starvation (serum-free medium) and inflammatory stress (LPS); 0.05 mg/mL, 24 h
[4] = tested on: IL-6; assay: IL-6 mRNA expression in LPS-induced primary mouse fibroblasts; assay type: cell-based; details: LPS 0.5 μg/mL 24 h; DLSKEPSISRE 0.05 mg/mL or metformin 1 mM
Protocol: as §1, §2, §3
(§4) The study was carried out in primary mouse fibroblasts. Isolation of fibroblasts was carried out with techniques described earlier (See Example 1). Incubation of fibroblasts with 100 μM individual peptides and 0.5 μg/mL LPS was carried out for 24 hours. Each treatment group was represented in two biological replicates.
(§5) Isolation of mRNA, synthesis of the first strand of cDNA, and RT-PCR were performed with techniques described earlier (See Example 1). Expression levels of RPL27, TNF-α, IL-6, and IRS2 genes were analyzed.

[5] = tested on: TNF-α; assay: TNF-α mRNA expression in LPS-induced primary mouse fibroblasts; assay type: cell-based; details: LPS 0.5 μg/mL 24 h; DLSKEPSISRE 0.05 mg/mL or metformin 1 mM
Protocol: as §1, §2, §3, §4, §5

Row | Compound | effect of co-applied inhibitor/antagonist on EPSI-induced M67 reporter activation [1] | IRS2 gene mRNA expression ([2]; 0.005 mg/ml, 24 hours) | IRS2 gene mRNA expression ([2]; 0.05 mg/ml, 24 hours) | IRS2 gene mRNA expression ([2]; 0.5 mg/ml, 24 hours, dose-response study) | IRS2 gene mRNA expression ([2]; 2.5 mg/ml, 24 hours) | IRS2 gene expression levels under normal conditions and stress ([2]; normal, LPS 0.5 μg/mL, high glucose 25 mM, DLSKEPSISRE 0.05 mg/mL or metformin 1 mM, 24 h) | IRS2 gene expression level (mRNA) ([2]; screening, peptide 0.5 mg/ml, 24 hours, normalized to RPL27) | GSK3p gene transcription levels [3] | LPS-induced expression of IL-6 [4] | LPS-induced expression of TNF-α [5]
1 | CC[C@H](C)C(=O)O[C@H]1C[C@H](O)C=C2C=C[C@H](C)[C@H](CC[C@@H](O)C[C@@H](O)CC(=O)O)[C@H]21 [pravastatin, Pravastatin] | reduced the level of M67 reporter activation |  |  |  |  |  |  |  |  | 
2 | DLSKEPSISRE |  | but not at 0.005 mg/ml | stimulating effect | stimulating effect | inhibition of IRS2 transcription | upregulated | significant IRS2 transcription induction | reduced | reducing LPS-induced upregulation | reducing LPS-induced upregulation
